Results taken from paper PMC7793965.
Results are given in words; binding and its absence hold for the method and conditions named. Binding seen in cells or lysates may run through a third protein. Some binding calls cover weakened binding; strength is not graded here.

Sequences of proteins named here, by UniProt entry; tags and fusion partners are left off.
UniProt Q9CUN6: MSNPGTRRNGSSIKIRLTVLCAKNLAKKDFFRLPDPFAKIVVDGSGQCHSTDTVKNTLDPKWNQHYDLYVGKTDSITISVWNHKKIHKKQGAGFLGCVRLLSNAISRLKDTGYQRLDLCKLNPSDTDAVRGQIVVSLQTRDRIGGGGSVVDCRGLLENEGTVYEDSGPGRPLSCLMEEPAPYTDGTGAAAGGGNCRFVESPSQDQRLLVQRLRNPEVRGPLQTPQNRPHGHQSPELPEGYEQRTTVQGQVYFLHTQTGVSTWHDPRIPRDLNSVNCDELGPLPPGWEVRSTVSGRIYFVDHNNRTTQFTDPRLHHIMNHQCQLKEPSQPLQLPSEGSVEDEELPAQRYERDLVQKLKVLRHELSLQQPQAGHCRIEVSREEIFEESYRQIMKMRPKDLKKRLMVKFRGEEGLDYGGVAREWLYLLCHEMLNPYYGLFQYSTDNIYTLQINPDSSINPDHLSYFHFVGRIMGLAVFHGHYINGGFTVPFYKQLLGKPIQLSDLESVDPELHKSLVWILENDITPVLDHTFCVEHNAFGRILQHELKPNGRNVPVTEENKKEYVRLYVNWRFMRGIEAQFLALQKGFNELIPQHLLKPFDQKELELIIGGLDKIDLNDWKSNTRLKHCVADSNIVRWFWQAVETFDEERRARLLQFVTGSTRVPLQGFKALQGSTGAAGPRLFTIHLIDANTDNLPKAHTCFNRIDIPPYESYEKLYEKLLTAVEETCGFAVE
UniProt Q08775: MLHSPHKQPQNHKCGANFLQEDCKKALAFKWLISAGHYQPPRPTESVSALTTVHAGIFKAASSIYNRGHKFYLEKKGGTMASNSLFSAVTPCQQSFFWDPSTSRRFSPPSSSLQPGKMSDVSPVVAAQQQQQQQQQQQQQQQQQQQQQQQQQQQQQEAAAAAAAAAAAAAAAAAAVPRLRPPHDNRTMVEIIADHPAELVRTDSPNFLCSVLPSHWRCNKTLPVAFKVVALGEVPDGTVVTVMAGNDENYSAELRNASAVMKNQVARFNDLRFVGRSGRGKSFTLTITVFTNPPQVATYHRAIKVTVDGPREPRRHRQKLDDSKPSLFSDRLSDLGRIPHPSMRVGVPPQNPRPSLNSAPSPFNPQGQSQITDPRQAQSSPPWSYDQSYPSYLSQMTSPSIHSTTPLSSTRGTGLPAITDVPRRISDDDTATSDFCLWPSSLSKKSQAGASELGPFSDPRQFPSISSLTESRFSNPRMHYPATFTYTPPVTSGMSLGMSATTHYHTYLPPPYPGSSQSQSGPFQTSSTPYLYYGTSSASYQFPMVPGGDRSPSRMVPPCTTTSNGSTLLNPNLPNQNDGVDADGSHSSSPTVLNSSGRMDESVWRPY

Biological target: FLAG-labeled SMURF1 (Smad ubiquitination regulatory factor-1) (UniProt Q9CUN6)
Assay: co-IP; MC3T3-E1C cells transfected with FLAG-labeled SMURF1 and HA-labeled Runx2, 24 h after transfection; anti-FLAG or anti-Myc-conjugated agarose (30 μl/sample); precipitates probed with antibodies against Myc and HA tags

binding: binds
Substance: HA-labeled Runx2 (Runt-related transcription factor 2) (from UniProt Q08775 1-607)
